Data as given in PubChem BioAssay AID652243 (Drosophila RNAi Screening Center, 2013).
Aim: 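Fly genes required for human androgen receptor driven transcription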 (primary screen). Cells: Drosophila S2R+ cells. Reagent: long dsRNA against Drosophila genes. Timing: 72 h (48 h, then 24 h hormone). Conditions: synthetic androgen R1881 at 10 nM for 24 h. Measurement: 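Per-well raw luminescence of the androgen-driven firefly reporter and of the Renilla control, two replicates each, without normalisation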. Reading the numbers: firefly reporter light: higher = more light from androgen-responsive reporter; Renilla control light: higher = more constitutive control signal (cell number, transfection). Hit rule: 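Hit when the log firefly-to-Renilla ratio dropped or increased by a fixed fold versus the mean of GFP or LacZ controls across duplicate plates; lowering cut given as 1.5 and as 3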. Calls: active = hit: reporter lowered or raised; inactive = no hit.
The deposit covers about 24,000 reagents; below is a random part of those that have a named target and a result. In the full data, 246 (1%) got an active call. 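Plates not normalised; calls are printed but the firefly/Renilla ratio behind them is not deposited; fold cut for lowering reported inconsistently.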 Raw values vary from plate to plate and are shown uncorrected. Reagents against one gene are numbered here. Names joined by + are all predicted targets of the reagent. Not stated in the record: the amount of reagent.

Target gene,reagent,"firefly reporter light, replicate 1","firefly reporter light, replicate 2","Renilla control light, replicate 1","Renilla control light, replicate 2",Call
Vps25,1,3.44e5,2.28e5,1.14e6,1.72e6,inactive
CG13014,1,4.40e5,4.38e5,2.57e6,2.56e6,inactive
CG13014,2,8.50e5,1.02e6,8.96e5,8.30e5,inactive
CG13014,3,8.53e5,9.10e5,1.37e6,1.40e6,inactive
CG1806,1,1.14e5,1.11e5,8.65e5,7.54e5,inactive
Obp56e,1,77359,1.18e5,1.04e6,7.44e5,inactive
Ccdc58 + CG34116,1,1.95e5,1.58e5,2.39e6,2.15e6,inactive
ham,1,1.30e5,67898,1.09e6,1.06e6,inactive
ham,2,1.30e5,2.46e5,1.02e6,9.06e5,active
ham,3,1.80e5,1.93e5,2.15e6,2.53e6,inactive
ham,4,2.90e5,2.87e5,6.68e5,1.00e6,inactive
CG11257,1,50047,1.15e5,9.28e5,1.33e6,inactive
CG14787,1,1.90e5,2.63e5,4.10e6,3.08e6,inactive
Ir25a,1,54530,80284,4.85e5,7.45e5,inactive
Ir25a,2,3.34e5,2.38e5,9.32e5,5.72e5,inactive
CG42346,1,6.05e5,5.12e5,1.83e6,1.62e6,inactive
CG42346,2,7.85e5,7.62e5,1.81e6,1.94e6,inactive
BigH1,1,41062,84902,4.70e5,8.14e5,inactive
BigH1,2,2.36e5,2.19e5,3.33e5,6.34e5,inactive
CG14926,1,4.56e5,3.68e5,2.86e6,1.80e6,inactive
Sytbeta,1,1.56e5,2.21e5,2.95e6,2.46e6,inactive
Sytbeta,2,1.79e5,1.43e5,1.98e6,1.78e6,inactive
pit,1,2.91e5,2.69e5,3.81e6,3.34e6,inactive
pit,2,4.00e5,5.87e5,8.58e5,1.06e6,inactive
pit,3,3.66e5,6.10e5,9.10e5,1.93e6,inactive
CG13738,1,9.05e5,1.37e6,2.30e6,2.34e6,inactive
CG13738,2,7.01e5,9.50e5,1.30e6,1.28e6,inactive
bero,1,1.93e5,2.17e5,1.97e6,2.73e6,inactive
bero,2,9.46e5,6.09e5,1.01e6,1.34e6,inactive
Ggamma30A,1,2.12e5,2.21e5,1.40e6,1.65e6,inactive
Ggamma30A,2,1.70e5,1.88e5,1.49e6,1.33e6,inactive
CG18636,1,1.47e5,1.29e5,1.72e6,1.61e6,inactive
CG18636,2,9.96e5,1.33e6,1.02e6,6.93e5,inactive
CG14200,1,9300,10318,42179,28453,inactive
CG14200,2,4.52e5,4.99e5,1.26e6,1.05e6,inactive
CG14200,3,3.15e5,2.76e5,7.60e5,7.52e5,inactive
CG10151,1,4.79e5,5.30e5,2.41e6,2.07e6,inactive
CG10151,2,2.46e5,3.85e5,7.26e5,7.66e5,inactive
Srp54k,1,1.10e5,1.51e5,1.69e6,1.88e6,inactive
CG8569,1,5.96e5,4.60e5,1.08e6,1.09e6,inactive
CG14662 + asRNA:CR43478,1,48639,1.04e5,1.60e6,1.27e6,inactive
MFS16,1,2.88e5,3.71e5,1.88e6,2.27e6,inactive
MFS16,2,3.00e5,3.39e5,5.65e5,7.78e5,inactive
Amy-d,1,1.73e5,1.88e5,1.74e6,1.74e6,inactive
CG13069,1,3.73e5,3.04e5,3.14e6,2.70e6,inactive
CG12479,1,7.81e5,7.21e5,3.25e6,3.36e6,inactive
scyl,1,1.81e5,1.35e5,3.83e6,3.57e6,inactive
scyl,2,3.52e5,2.68e5,4.53e5,5.67e5,inactive
Nt5b,1,83392,64336,3.40e5,4.34e5,inactive
Nt5b,2,3.87e5,4.19e5,3.01e6,2.84e6,inactive
Nt5b,3,6.14e5,5.50e5,4.24e6,3.67e6,inactive
Nt5b,4,8.71e5,8.24e5,1.24e6,1.39e6,inactive
Nt5b,5,5.02e5,5.37e5,1.16e6,1.48e6,inactive
IPIP + CG34179 + slmo,1,6.20e5,6.35e5,1.83e6,1.98e6,inactive
CG42342,1,1.37e5,1.42e5,2.87e5,2.66e5,inactive
CG42342,2,1.97e5,2.67e5,3.05e6,3.21e6,inactive
CG42342,3,2.17e5,2.64e5,3.08e6,3.08e6,inactive
CG42342,4,1.71e5,1.83e5,2.91e6,2.62e6,inactive
CG42342,5,4.30e5,5.30e5,6.91e5,6.60e5,inactive
CG42342,6,1.40e5,1.97e5,4.07e5,4.08e5,inactive
CG42342,7,5.38e5,5.06e5,6.26e5,6.58e5,inactive
CG42342,8,7.83e5,7.86e5,9.85e5,9.69e5,inactive
CG42342,9,4.13e5,4.41e5,1.28e6,8.81e5,inactive
CG42342,10,4.26e5,5.33e5,1.69e6,1.33e6,inactive
mthl7,1,1.68e5,1.56e5,1.18e6,1.12e6,inactive
unc-104,1,1.31e5,98021,2.36e6,2.36e6,inactive
CG32797,1,5.34e5,6.63e5,1.62e6,1.85e6,inactive
CG13679,1,4.64e5,4.09e5,1.92e6,2.09e6,inactive
CG13679,2,1.06e6,1.09e6,5.59e5,4.63e5,inactive
Gbs-70E,1,1.54e5,1.55e5,1.38e6,2.00e6,active
Gbs-70E,2,,,,,inactive
Gbs-70E,3,,,,,inactive
Muc68Ca,1,6.80e5,4.44e5,3.06e6,3.16e6,inactive
Muc68Ca,2,2.96e5,2.29e5,2.42e6,1.70e6,inactive

Reformatted: entries from further up
{"Target gene": "mthl7", "reagent": 1, "firefly reporter light, replicate 1": 1.68e5, "firefly reporter light, replicate 2": 1.56e5, "Renilla control light, replicate 1": 1.18e6, "Renilla control light, replicate 2": 1.12e6, "Call": "inactive"}
{"Target gene": "unc-104", "reagent": 1, "firefly reporter light, replicate 1": 1.31e5, "firefly reporter light, replicate 2": 98021, "Renilla control light, replicate 1": 2.36e6, "Renilla control light, replicate 2": 2.36e6, "Call": "inactive"}
{"Target gene": "CG32797", "reagent": 1, "firefly reporter light, replicate 1": 5.34e5, "firefly reporter light, replicate 2": 6.63e5, "Renilla control light, replicate 1": 1.62e6, "Renilla control light, replicate 2": 1.85e6, "Call": "inactive"}
{"Target gene": "CG13679", "reagent": 1, "firefly reporter light, replicate 1": 4.64e5, "firefly reporter light, replicate 2": 4.09e5, "Renilla control light, replicate 1": 1.92e6, "Renilla control light, replicate 2": 2.09e6, "Call": "inactive"}
{"Target gene": "CG13679", "reagent": 2, "firefly reporter light, replicate 1": 1.06e6, "firefly reporter light, replicate 2": 1.09e6, "Renilla control light, replicate 1": 5.59e5, "Renilla control light, replicate 2": 4.63e5, "Call": "inactive"}
{"Target gene": "Gbs-70E", "reagent": 1, "firefly reporter light, replicate 1": 1.54e5, "firefly reporter light, replicate 2": 1.55e5, "Renilla control light, replicate 1": 1.38e6, "Renilla control light, replicate 2": 2.00e6, "Call": "active"}
{"Target gene": "Gbs-70E", "reagent": 2, "Call": "inactive"}
{"Target gene": "Gbs-70E", "reagent": 3, "Call": "inactive"}
{"Target gene": "Muc68Ca", "reagent": 1, "firefly reporter light, replicate 1": 6.80e5, "firefly reporter light, replicate 2": 4.44e5, "Renilla control light, replicate 1": 3.06e6, "Renilla control light, replicate 2": 3.16e6, "Call": "inactive"}
